# Results: US20020142355A1 (BAYLOR COLLEGE OF MEDICINE, published 2002)
# Protein sequences, listed by entry. Tags and fused reporters are not part of them. Residues count along the entry.
# UniProt P02701, residues 25-152: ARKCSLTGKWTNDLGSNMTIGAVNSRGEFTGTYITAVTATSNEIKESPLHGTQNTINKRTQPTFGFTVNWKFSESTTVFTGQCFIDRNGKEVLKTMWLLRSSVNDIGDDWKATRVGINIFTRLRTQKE
# Results are given in words; binding and its absence hold for the method and conditions named. Some binding calls cover weakened binding; strength is not graded here. Where a sequence is shown, tags or fusion partners need not be part of it.
# Molecular target: T1, GFP-PSTCD fusion protein (biotinylated in the cytoplasm of CHO cells) (P. shermanii) (UniProt P02904)
# T1 sequence (chain, biotin on lysine 89 of PSTCD (numbering of FIG. 1)): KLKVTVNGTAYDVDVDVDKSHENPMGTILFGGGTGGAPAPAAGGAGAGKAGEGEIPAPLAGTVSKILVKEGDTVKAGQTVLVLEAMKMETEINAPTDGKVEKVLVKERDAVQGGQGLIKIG
# Test: Western blot of CHO cell lysate, avidin-HRP probe
substance,measurement,value
avidin-HRP (from UniProt P02701 25-152),binding,binds
